Results deposited as PubChem BioAssay AID686937 (Drosophila RNAi Screening Center, 2013)
The screen tested about 23,000 reagents; below is a random part of those that have a named target and a result. 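Reduced-secretion tags in replicate 1 do not always agree with the z-scores; no criterion for assigning the tags was given.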 The numbers tell different reagents against one gene apart. A plus sign joins genes that one reagent is predicted to hit. Not given: the amount of reagent.

Purpose: 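Knock-downs that reduce output of a secreted reporter enzyme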 (primary screen)
Cell system: Drosophila S2 cells expressing secreted horseradish peroxidase
Reagent: long dsRNA against Drosophila genes
Time to read-out: about 5.5 days (5 days dsRNA, then 12 h reporter induction)
Conditions: reporter expression induced after 5 days of dsRNA, read 12 h later; inducer not stated
Detection: 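After 5 days of dsRNA and 12 h of reporter induction, medium peroxidase read by chemiluminescence and scored as per-plate z-score; higher values mean more reporter released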
Direction: z-score: higher = more reporter secreted into medium

gene | reagent | z-score, replicate 1 | z-score, replicate 2 | z-score, replicate 3 | z-score, replicate 4 | phenotype, replicate 1
Sirt1 (GeneID 34708) | 1 | 0.27 | 0.35 | – | – | –
CG7695 (GeneID 42234) | 1 | 0.26 | 0.12 | – | – | –
CG2519 (GeneID 40666) | 1 | 0.28 | 0.28 | – | – | –
CG1999 (GeneID 31671) | 1 | 0.17 | 0.42 | – | – | –
CG2811 (GeneID 37988) | 1 | 0.45 | -0.01 | – | – | –
CG10561 (GeneID 35189) | 1 | 0.24 | 0.31 | – | – | –
AstA-R2 (GeneID 43393) | 1 | 0.2 | 0.27 | – | – | –
Phs (GeneID 39697) | 1 | 0.37 | 0.3 | – | – | –
Ccp84Ac (GeneID 40823) | 1 | 0.34 | 0.48 | – | – | –
CG8726 (GeneID 35758) | 1 | 0.25 | 0.28 | – | – | –
St3 (GeneID 37743) | 1 | 0.56 | 0.42 | – | – | –
St3 (GeneID 37743) | 2 | 0.2 | 0.11 | – | – | –
CG3348 (GeneID 50082) | 1 | 0.28 | 0.08 | – | – | –
CG12546 + CG14452 | 1 | 0.27 | 0.14 | – | – | –
Cyp308a1 (GeneID 32859) | 1 | -0.03 | 0.41 | – | – | –
Ubi-p63E (GeneID 38456) | 1 | -0.62 | -6.73 | – | – | reduced secretion
odd (GeneID 33583) | 1 | -0.52 | -0.5 | – | – | –
nur (GeneID 318957) | 1 | 0.73 | 0.19 | – | – | –
Tap42 (GeneID 326166) | 1 | 0.53 | 0.4 | – | – | –
CG31207 (GeneID 326125) | 1 | 0.44 | 0.34 | – | – | –
CngB (GeneID 37479) | 1 | 0.46 | 0.41 | – | – | –
ACXA (GeneID 53432) | 1 | 0.07 | 0.09 | – | – | –
CG2200 (GeneID 32258) | 1 | 0.27 | 0.39 | – | – | –
CG32454 (GeneID 318037) | 1 | 0.26 | 0.32 | – | – | –
CG13786 (GeneID 34006) | 1 | -0.1 | -0.02 | – | – | –
blp (GeneID 41937) | 1 | 0.13 | -0.7 | – | – | –
CG8072 (GeneID 39181) | 1 | 0.38 | 0.32 | – | – | –
CG34324 (GeneID 32302) | 1 | 0.39 | 0.5 | – | – | –
CG4991 (GeneID 32695) | 1 | 0.37 | 0.35 | – | – | –
CG34202 (GeneID 5740498) | 1 | 1.2 | 0.86 | – | – | –
CG33290 (GeneID 2768993) | 1 | 0.49 | 0.12 | – | – | –
CG11700 (GeneID 31564) | 1 | -7.33 | -6 | – | – | reduced secretion
CG14151 (GeneID 39201) | 1 | 0.35 | -0.08 | – | – | –
TfIIEalpha (GeneID 39313) | 1 | -2.7 | -3.18 | – | – | reduced secretion
CG18132 (GeneID 33333) | 1 | 0.06 | 0.04 | – | – | –
CR16735 (GeneID 10178810) | 1 | -0.46 | 0.35 | – | – | –
trbl (GeneID 43999) | 1 | 0.37 | 0.4 | – | – | –
CG34106 (GeneID 4379891) | 1 | 0.26 | 0.09 | – | – | –
Syx18 (GeneID 42933) | 1 | -2.85 | -3.85 | – | – | reduced secretion
Peritrophin-15a (GeneID 50433) | 1 | 0.26 | 0.29 | – | – | –
Cyp4s3 (GeneID 32444) | 1 | 0.43 | 0.5 | – | – | –
Cyp4s3 (GeneID 32444) | 2 | -0.3 | -0.68 | – | – | reduced secretion
fs(1)Ya (GeneID 31263) | 1 | 0.19 | -0.07 | – | – | –
CG12848 (GeneID 50139) | 1 | 0.38 | 0.27 | – | – | –
CG9777 (GeneID 32633) | 1 | 0.34 | 0.52 | – | – | –
CG43777 + CG43776 + CG43775 | 1 | 0.25 | 0.06 | – | – | –
ena (GeneID 37201) | 1 | 0.56 | 0.59 | – | – | –
ena (GeneID 37201) | 2 | 0.22 | 0.23 | – | – | –
Gr59b (GeneID 117484) | 1 | 0.2 | 0.34 | – | – | –
Lpin (GeneID 35790) | 1 | 0.15 | 0.25 | – | – | –
CG18585 (GeneID 34041) | 1 | 0.31 | 0.38 | – | – | –
CG7888 (GeneID 39232) | 1 | 0.17 | 0.2 | – | – | –
CG12620 (GeneID 35034) | 1 | 0.09 | 0.05 | – | – | –
Dscam4 (GeneID 2769008) | 1 | 0.23 | 0.08 | – | – | –
Dscam4 (GeneID 2769008) | 2 | 0.66 | 0.46 | – | – | –
Dscam4 (GeneID 2769008) | 3 | 0.11 | 0.32 | – | – | –
Dscam4 (GeneID 2769008) | 4 | -0.76 | 0.01 | – | – | –
Dscam4 (GeneID 2769008) | 5 | 0.43 | 0.56 | – | – | –
PGAP2 (GeneID 33258) | 1 | 0.11 | 0.02 | – | – | –
CG30428 (GeneID 246608) | 1 | 0.03 | – | – | – | –
CG31775 + CG42586 | 1 | 0.33 | 0.2 | – | – | –
CNPYb (GeneID 40084) | 1 | 0.15 | 0.36 | – | – | –
fzo (GeneID 42745) | 1 | 0.33 | 0.3 | – | – | –
Ranbp16 + Lcch3 | 1 | 0.5 | 0.37 | – | – | –
Septin2 (GeneID 42438) | 1 | 0.3 | 0.58 | – | – | –
Ctu2 (GeneID 35234) | 1 | 0.24 | 0.21 | – | – | –
CG15308 (GeneID 50415) | 1 | 0.36 | 0.43 | – | – | –
Jra (GeneID 36057) | 1 | 0.87 | 0.62 | – | – | –
CG31810 (GeneID 318955) | 1 | 0.41 | 0.43 | – | – | –
sno (GeneID 32273) | 1 | 0.52 | 0.61 | – | – | –
Diap2 (GeneID 36748) | 1 | 0.32 | 0.15 | – | – | –
Cpr92F (GeneID 42450) | 1 | 0.4 | 0.64 | – | – | –
CG3323 (GeneID 31439) | 1 | 0.28 | 0.43 | – | – | –
CG42455 + vnc | 1 | -1.97 | -1.44 | – | – | reduced secretion
Pcf11 (GeneID 36658) | 1 | -3.82 | -2.42 | – | – | reduced secretion
CG14565 (GeneID 40423) | 1 | 0.22 | 0.3 | – | – | –
CG8152 (GeneID 36696) | 1 | 0.32 | 0.37 | – | – | –
CG15155 (GeneID 35087) | 1 | 0.33 | 0.02 | – | – | –
nAChRalpha5 (GeneID 34826) | 1 | 0.64 | 0.69 | – | – | –
nAChRalpha5 (GeneID 34826) | 2 | 0.37 | 0.09 | – | – | –
nAChRalpha5 (GeneID 34826) | 3 | 0.87 | 0.37 | -0.59 | 0.35 | –
nAChRalpha5 (GeneID 34826) | 4 | -0.78 | 0.09 | – | – | –
